Source: PubChem BioAssay AID1347076 (National Center for Advancing Translational Sciences (NCATS), 2019)
The whole screen tested about 400,000 compounds, of which about 13,000 (3.2%) were called active. Inconclusive means that the source gave no clear call. Such entries were picked first, then a sample of the others. Calls follow the shape of the dose curve; as a rule, active = well fitted cell-killing curve with a large enough effect; inconclusive = small, poorly fitted or top-dose-only effect, or effect the other way; inactive = flat fitted curve, though single readings scatter. A potency beside an inconclusive call is a rough fit, not a confirmed value.

Experiment: qHTS assay for MDR1-selective chemotherapeutics: Primary screen using the drug-selected MDR subline cells KB-V1; also: nearly all actives have a fitted effect of over 60% in size
Details: KB-V1 MDR cells viability, CellTiter-Glo, 72 h; activity change, negative = cytotoxicity: at 46.1 µM (top of the series)
Outline: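 KB-V1 MDR subline cells in DMEM (phenol-red free, 10% FBS) exposed to compounds in qHTS concentration series for 72 h at 37 degrees C. Viability read by CellTiter-Glo luminescence; concentration-effect curves fitted after normalization and correction.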
% is scaled to controls: 0 for no effect and ±100 for the full control effect; potency is read from the fitted curve at half-maximal effect.

Compound | Potency | activity change, negative = cytotoxicity
Oc1ccc2ccccc2c1/C=N/Nc1nnc(-c2ncc[nH]2)c2ccccc12 | inconclusive: 1.84 µM [cytotoxic, full curve, poor fit] | 
CCCCCn1c(=O)[nH]c2cc(C(=O)N3CCN(c4cc(Cl)ccc4C)CC3)ccc2c1=O |  | inactive: 2.78%
Cc1c(OCC(F)(F)F)ccnc1CSc1nc2ccccc2[nH]1 | inconclusive: 18.4 µM [cytotoxic, single point] | 
O=C1C(=O)N(CCCN2CCOCC2)C(c2ccc(Cl)cc2)/C1=C(/O)c1ccc(F)cc1 (stereo not given) | inconclusive: 29.1 µM [rising, single point] | 
Cc1cccc(NS(=O)(=O)c2cn(C)c(=O)n(C)c2=O)c1C | inconclusive: 0.0146 µM [cytotoxic, full curve] | 
Cc1ccc(C(=O)OCc2cc(=O)n3nc(-c4cccs4)sc3n2)cc1 | inconclusive: 25.9 µM [rising, single point] | 
O=C1C2CC=CCC2C(=O)N1c1ccc(NCCc2ccc(Cl)cc2)c([N+](=O)[O-])c1 (stereo not given) |  | inactive: 0.877%
Cc1csc(SCC(=O)N(c2ccccc2)C(C)C)n1 | inconclusive: 25.9 µM [cytotoxic, single point] | 
Cc1ccc2nc(-c3ccc(F)cc3)nc(SCC(=O)NCC3CCCO3)c2c1 (stereo not given) |  | inactive: -4.57%
CC1CC(C)CN(S(=O)(=O)c2ccc3c(c2)NC(=O)C(C)C(=O)N3)C1 (stereo not given) |  | inactive: -5.03%
CCN(CC)c1ccc2cc(-c3nc(-c4ccc(Cl)cc4Cl)cs3)c(=O)oc2c1 | inconclusive: 5.17 µM [rising, partial curve, poor fit] | 
CN(C)CCN(Cc1ccccc1)C(c1ccnc2ccccc12)c1nnnn1-c1ccc2c(c1)OCCO2 (stereo not given) | inconclusive: 9.2 µM [cytotoxic, partial curve] | 
COc1ccccc1NC(=O)Cn1c(=O)n(Cc2cccs2)c(=O)c2cccnc21 |  | inactive: 26.5%
CCn1cc([N+](=O)[O-])c(C(=O)Nc2nc(-c3ccc(C)cc3)c(C)s2)n1 | inconclusive: 18.4 µM [cytotoxic, single point] | 
CCCCOC(=O)/C(=C/C=C/c1ccccc1)NC(=O)c1ccccc1 | inconclusive: 5.17 µM [cytotoxic, partial curve] | 
CC(=O)c1cccc(OC(=O)c2ccccc2)c1 | inconclusive: 18.4 µM [rising, single point] | 
COc1cccc(CNC(=O)[C@@H]2CCCN2C(=O)[C@@H]2CCCN2C(=O)c2cccc(OC)c2)c1 |  | inconclusive: -6.73%
CCn1c(SCC(=O)N2CCN(c3ccc(Cl)cc3)CC2)nc2ccccc2c1=O | active: 2.59 µM | 
CC(=O)N/C(=C\c1ccc(F)cc1)C(=O)OCc1ccccc1 |  | inactive: -0.513%
O=C(NCc1ccccc1)c1cc[n+](CC(=O)c2cccs2)cc1 |  | inactive: 14.7%
COC(=O)c1ccc(C(=O)OC)c(NC(=O)CN(C)Cc2cccc(Cl)c2Cl)c1 | inconclusive: 16.4 µM [cytotoxic, partial curve, poor fit] | 
CCOC(=O)c1ccccc1NS(=O)(=O)c1ccc(C)cc1 | inconclusive: 8.2 µM [cytotoxic, partial curve] | 
O=C(COC(=O)/C=C/c1ccco1)NC1CCCCC1 | inconclusive: 29.1 µM [cytotoxic, single point] | 
Cc1nc(-c2ccccc2)sc1-c1ccc(SCC(=O)NCc2ccccc2)nn1 |  | inactive: 3.03%

Compound | Potency | activity change, negative = cytotoxicity
COc1ccc2cc(C(C)C(=O)N3CCC(C)CC3)ccc2c1 (stereo not given) | inconclusive: 18.4 µM [cytotoxic, single point] | 
O=C(Nc1ccc(-c2nc3cc(NC(=O)c4ccccc4F)ccc3o2)cc1)c1ccccc1F | inconclusive: 29.1 µM [rising, single point] | 
CCOC(=O)c1c(C)nc2sc(C(N)=O)c(N)c2c1-c1ccccc1 | inconclusive: 16.4 µM [cytotoxic, single point] | 
Cn1c(N)c(C(=O)COC(=O)Cc2ccc(Cl)cc2)c(=O)n(C)c1=O |  | inactive: -20.3%
O=c1[nH]c(CN2CCN(c3ccc([N+](=O)[O-])cc3)CC2)nc2ccsc12 | active: 18.4 µM | 
COCCn1nnnc1C(c1cc2ccc(C)cc2[nH]c1=O)N(Cc1ccco1)Cc1cccs1 (stereo not given) | inconclusive: 29.1 µM [cytotoxic, single point] | 
O=C1c2ccccc2NC(c2cccc([N+](=O)[O-])c2)N1CCc1ccccc1 (stereo not given) | inconclusive: 8.2 µM [cytotoxic, partial curve, poor fit] | 
COc1ccc(N2CCN(c3cc(C)c4ccc(C)cc4n3)CC2)cc1 | inconclusive: 8.2 µM [cytotoxic, partial curve] | 
COc1ccc(NC(=O)C(=O)NCCO)cc1Cl | inconclusive: 13 µM [rising, partial curve, poor fit] | 
CCOC(=O)N1CCN(C(=O)c2ccc(CS(=O)(=O)c3ccccc3OC)o2)CC1 |  | inactive: 0%
CCCCOc1ccc(C(=O)NCc2ccncc2)cc1 | inconclusive: 18.4 µM [cytotoxic, single point] | 
Cc1cccc(C2c3[nH]c4ccccc4c3CCN2C(=O)c2ccc(=O)[nH]c2)n1 (stereo not given) |  | inactive: 7.82%
COc1ccc(O)c(C(=O)/C=C/c2cc3ccccc3o2)c1 |  | inactive: 1.23%
CC1(C(=O)NCc2ccc(Cl)cc2)CCN1C(=O)Cc1cccc2ccccc12 (stereo not given) |  | inactive: -2.47%
COc1ccccc1NC(=O)c1sc2nc(C)c(C(=O)Nc3ccc(C)cc3C)c(-c3ccc(Br)cc3)c2c1N |  | inactive: -10.3%
Cc1ccccc1CNC(=O)Cn1ccc2cc(S(=O)(=O)N3CCCCC3)ccc21 |  | inactive: -1.76%
O=C(COC(=O)c1oc2ccccc2c1CSc1ccc(Cl)cc1)NC1CCCC1 | inconclusive: 29.1 µM [cytotoxic, single point] | 
COC(=O)c1cc(=O)n2c(sc3ccccc32)c1C#N |  | inactive: 20%
Cc1cccc(NC(=O)C2CCN(S(=O)(=O)c3ccc4c(c3)NC(=O)CO4)CC2)c1 | inconclusive: 8.2 µM [rising, partial curve] | 
Cn1c(=O)c2c(nc(Oc3ccc(F)cc3)n2Cc2ccc(F)cc2)n(C)c1=O | inconclusive: 2.06 µM [cytotoxic, full curve] | 
CCC(C)n1ncn(-c2ccc(N3CCN(c4ccc(OC)cc4)CC3)cc2)c1=O (stereo not given) | inconclusive: 9.2 µM [cytotoxic, partial curve] | 
Cc1ccc(S(=O)(=O)N2CCOCC2)cc1C(=O)NCCCN1CCCC1=O | inconclusive: 20.6 µM [rising, single point] | 
Cc1ccc(CNC(=O)C(=O)NCC(c2cccnc2)N2CCN(c3ccc(F)cc3)CC2)cc1 (stereo not given) | inconclusive: 2.91 µM [cytotoxic, full curve, poor fit] | 
O=C(COC(=O)c1cccc([N+](=O)[O-])c1)NCc1ccc2c(c1)OCO2 |  | inactive: 15.9%

Compound | Potency | activity change, negative = cytotoxicity
O=C(Cc1c[nH]c2ccccc12)N1CCN(S(=O)(=O)c2cccc(Cl)c2Cl)CC1 | inconclusive: 20.6 µM [cytotoxic, partial curve, poor fit] | 
Cc1nn(Cc2cccc(C(=O)O)c2)c(C)c1[N+](=O)[O-] | inconclusive: 29.1 µM [rising, single point] | 
COc1cc(C2C(C#N)=C(N)Oc3cc(N(C)C)ccc32)cc2c1OCO2 (stereo not given) | active: 0.0164 µM | 
COc1ccc(N2CCN(C(=O)CC3NC4CCCCC4NC3=O)CC2)cc1 (stereo not given) |  | inconclusive: -47.7%
COc1ccc([N+](=O)[O-])cc1NC(=O)Nc1cccc(Cl)c1 | active: 2.91 µM | 
Cc1[nH]c2ccccc2c1C(=O)CCl | inconclusive: 29.1 µM [cytotoxic, single point] | 
O=C(c1cc2nc(-c3ccco3)cc(C(F)(F)F)n2n1)N1CCN(c2ccccn2)CC1 | inconclusive: 25.9 µM [cytotoxic, partial curve, poor fit] | 
O=S(=O)(c1cccc(F)c1)N1CCC(CO)(Cc2cccc(F)c2)CC1 | inconclusive: 18.4 µM [cytotoxic, partial curve] | 
O=C(CN1CCN(S(=O)(=O)c2ccc(Br)s2)CC1)N1CCCCC1 |  | inactive: -5.26%
CC(=O)c1ccc(NC(=O)c2ccc3c(c2)nnn3C2CCCC2)cc1 | inconclusive: 1.64 µM [rising, single point] | 
COC(=O)N1CCN(c2ccc(OC)cc2)CC1 |  | inconclusive: -30.9% [cytotoxic]
CCc1ccc2c(c1)C(NC(C)=O)C(=O)N2CC (stereo not given) | inconclusive: 29.1 µM [rising, single point] | 
O=C(CNc1ccc(F)cc1)N/N=C/c1c(O)ccc2ccccc12 |  | inactive: -13.5%
CC(C)(CC(=O)O)CC(=O)N1CCN(c2cc(C(F)(F)F)nc3ccccc23)CC1 |  | inactive: 10.4%
COc1cccc2c1OC1(N3CCOCC3)CCCCC1C2C[N+](=O)[O-] (stereo not given) |  | inactive: 2.47%
O=C(c1ccc(Cl)cc1)N1CCN(c2ccc([N+](=O)[O-])c(NCc3cccnc3)c2)CC1 | active: 20.6 µM | 
Cc1cc(C)n(Cc2ccc(NC(=O)c3ccc(COc4ccccc4Br)cc3)cc2)n1 | active: 2.59 µM | 
Cc1cc(C)c(S(=O)(=O)N2CCCC(C(=O)NCc3ccncc3)C2)c(C)c1 (stereo not given) | inconclusive: 16.4 µM [cytotoxic, single point] | 
COc1ccc(NC(=O)c2sc(Cl)nc2-c2ccccc2)cc1 | inconclusive: 18.4 µM [cytotoxic, single point] | 
CC(C)(C)N/N=C/c1c(O)n(-c2ccc(Cl)cn2)c(=O)c2ccccc12 | inconclusive: 20.6 µM [cytotoxic, single point] | 
CCCCS(=O)CC(O)COc1ccc(C(C)(C)C)cc1 (stereo not given) | active: 20.6 µM | 
COc1cccc(CN2CC(C(=O)N3CCN(c4ccc(Cl)cc4)CC3)CCC2=O)c1 (stereo not given) | inconclusive: 20.6 µM [cytotoxic, partial curve, poor fit] | 

Looked up above:
Value of COc1ccc(NC(=O)c2sc(Cl)nc2-c2ccccc2)cc1 under Potency: inconclusive: 18.4 µM [cytotoxic, single point]
Value of CCc1ccc2c(c1)C(NC(C)=O)C(=O)N2CC (stereo not given) under Potency: inconclusive: 29.1 µM [rising, single point]
Value of COc1cc(C2C(C#N)=C(N)Oc3cc(N(C)C)ccc32)cc2c1OCO2 (stereo not given) under Potency: active: 0.0164 µM
Value of COc1ccc(N2CCN(C(=O)CC3NC4CCCCC4NC3=O)CC2)cc1 (stereo not given) under activity change, negative = cytotoxicity: inconclusive: -47.7%
Value of CC(C)(CC(=O)O)CC(=O)N1CCN(c2cc(C(F)(F)F)nc3ccccc23)CC1 under activity change, negative = cytotoxicity: inactive: 10.4%
Value of COc1cccc(CN2CC(C(=O)N3CCN(c4ccc(Cl)cc4)CC3)CCC2=O)c1 (stereo not given) under Potency: inconclusive: 20.6 µM [cytotoxic, partial curve, poor fit]
